# Test results as given in US10966995B2, “Use of secoisolariciresinol diglucosides (SDGS) and related compounds for protection against radiation and chemical damage” (THE TRUSTEES OF THE UNIVERSITY OF PENNSYLVANIA, priority 2014, dated 2021).
# At least one compound was matched to its structure with a doubt left.
# Test system: calf thymus DNA
# Experiment: Hypochlorite-induced damage to calf thymus DNA
# Type: biochemical
# Settings: 0.5 mM hypochlorite; test agents 1.0 μM
# Protocol: Calf thymus or plasmid DNA was incubated with hypochlorite for 2 hrs at 37° C. DNA samples were subjected to agarose (1%) gel electrophoresis and analyzed.
smiles,measurement,value
COc1cc(C2Oc3cc([C@H]4Oc5cc(O)cc(O)c5C(=O)[C@@H]4O)ccc3OC2CO)ccc1O (stereo partly shown) [silibinin],Hypochlorite-induced damage to genomic DNA,comparable
